The text below walks through data of paper PMC12255069 (Journal of Biological Engineering, 2025).

This experiment deals with T1, ICOS-L Y8 displayed on yeast (UniProt O75144).
T1 sequence: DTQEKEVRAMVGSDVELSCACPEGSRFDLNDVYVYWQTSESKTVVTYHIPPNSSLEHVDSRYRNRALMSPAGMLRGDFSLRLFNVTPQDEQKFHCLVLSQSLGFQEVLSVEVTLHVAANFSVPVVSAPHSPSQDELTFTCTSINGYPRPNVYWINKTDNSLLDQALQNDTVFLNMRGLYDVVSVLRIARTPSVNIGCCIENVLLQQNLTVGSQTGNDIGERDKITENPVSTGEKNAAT
Kind of experiment: flow cytometry on cells; yeast cells displaying ICOS-L variants labelled with hICOS-Fc-Alexa488 and anti-FLAG-iFluor647 for 1 h at room temperature in PBSB (0.1% BSA in PBS); only the binder purified. On the technique in general: Flow cytometry measures light scatter and fluorescence of single cells or particles in a stream.

No constants are given. Whether binding was seen depends on the method and setting. Some results given as binding are weak or reduced against the parent protein; the word gives no strength. Tags and fused reporters may be left off the sequences shown.

B1: hICOS-Fc-Alexa488 (Fc fusion, UniProt Q9Y6W8 21-140)
chain: EINGSANYEMFIFHNGGVQILCKYPDIVQQFKMQLLKGGQILCDLTKTKGSGNTVSIKSLKFCHSQLSNNSVSFFLYNLDHSHANYYFCNLSIFDPPPFKVTLTGGYLHIYESQLCCQLK
modifications: Alexa Fluor 488 label
B1: the binding entry is “binds”.
